Results taken from patent publication US20130202614A1, “AUTOTAXIN PATHWAY MODULATION AND USES THEREOF” (B.S.R.C. "ALEXANDER FLEMING", priority 2010, published 2013).
For at least one compound, name, drawing or mass did not settle the structure.

System: primary SFs
Experiment: Synovial fibroblast proliferation assay ([3H]thymidine incorporation)
Assay type: cell-based, mouse
Details: pre-treated with inhibitor prior to LPA stimulation
Description: Primary SFs were isolated from 6-8 week old mice as previously described. Briefly, mouse joint specimens were minced and digested with type IV collagenase. The released cells were grown in Dulbecco's modified Eagle's medium (DMEM) supplemented with fetal bovine serum (FBS) and penicillin-streptomycin. Isolated fibroblasts adhered on culture dishes were maintained under standard conditions (37° C. and 5% CO2) and used for the experiments between the third and fifth passages.
Cells were starved with serum-free medium before treatment due to the presence of lysophospholipids in the serum Starvation medium is supplemented with 0.2% fatty-acid-free BSA. After routine starvation, cells were stimulated with various concentrations of the tested compounds (LPA, LPC, S1P or TNF) as indicated in details below. Where indicated cells were pre-treated with the inhibitors of ERK MAPK, p38 MAPK, JNK and Rho kinase for 3 hours prior to LPA stimulation. At the moment of cell treatment, the culture medium was replaced with fresh serum-free medium containing various concentrations of the tested compounds.
Preconfluent cell cultures were starved overnight, incubated for 24 h with LPA and the rest tested compounds and finally exposed to 0.5 μCi/ml of [^3H]thymidine. […] The radioactivity of incorporated [^3H]-thymidine was determined by liquid scintillation counting.

## Oc1c2ccccc2c2c3c(cccc13)N=N2 [SP600125]
  LPA responses of wt SFs (LPA-induced proliferation): inhibited
